{"sequences": {"note": "Chains of the proteins cited; added tags and fusions are not shown.", "UniProt Q06609, whole entry": "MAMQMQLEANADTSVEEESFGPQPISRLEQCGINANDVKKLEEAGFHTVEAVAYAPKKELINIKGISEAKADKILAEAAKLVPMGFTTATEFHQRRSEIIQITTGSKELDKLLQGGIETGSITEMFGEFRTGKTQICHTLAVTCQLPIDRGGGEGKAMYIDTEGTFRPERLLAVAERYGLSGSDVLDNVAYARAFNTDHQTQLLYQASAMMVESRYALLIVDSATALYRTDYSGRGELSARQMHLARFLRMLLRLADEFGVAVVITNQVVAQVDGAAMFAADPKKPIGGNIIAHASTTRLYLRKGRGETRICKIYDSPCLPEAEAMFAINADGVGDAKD", "UniProt Q06609, whole entry G151D": "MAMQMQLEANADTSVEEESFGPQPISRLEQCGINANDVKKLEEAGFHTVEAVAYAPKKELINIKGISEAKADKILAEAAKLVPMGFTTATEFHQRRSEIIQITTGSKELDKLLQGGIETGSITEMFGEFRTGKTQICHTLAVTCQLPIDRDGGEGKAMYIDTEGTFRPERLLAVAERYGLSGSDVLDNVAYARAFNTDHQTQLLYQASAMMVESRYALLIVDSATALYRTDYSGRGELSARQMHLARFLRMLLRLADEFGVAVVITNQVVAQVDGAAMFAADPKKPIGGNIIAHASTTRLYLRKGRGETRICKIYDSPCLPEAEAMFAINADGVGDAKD"}, "source": "paper PMC4981402", "key": {"RAD51 WT (human)": {"molecular_target": "RAD51 WT (human) (UniProt Q06609)", "assay": "EMSA", "conditions": "2 mM ATP, 1 mM Mg2+, 2 mM Ca2+, EMSA: 25 mM TrisOAc pH 7.5, 1 mM MgCl2, 2 mM CaCl2, 0.1 ug/uL BSA, 1 mM DTT, 0.2 nM DNA, 37 C 30 min, gel in TAE at 4 C, recombinant protein"}, "RAD51 G151D (human)": {"molecular_target": "RAD51 G151D (human) (UniProt Q06609)", "assay": "EMSA", "conditions": "2 mM ATP, 1 mM Mg2+, 2 mM Ca2+, complexes migrate faster than WT, EMSA: 25 mM TrisOAc pH 7.5, 1 mM MgCl2, 2 mM CaCl2, 0.1 ug/uL BSA, 1 mM DTT, 0.2 nM DNA, 37 C 30 min, gel in TAE at 4 C, recombinant protein"}, "[1]": {"conditions": "label: 5'-32P, single-stranded DNA"}}, "note": "The exact form of at least one protein or probe is not confirmed. At least one verdict was read from the data and is not stated in words by the source.", "data": [{"sequence": "CTGCTTTATCAAGATAATTTTTCGACTCATCAGAAATATCCGTTTCCTATATTTATTCCTATTATGTTTTATTCATTTACTTATTCTTTATGTTCATTTTTTATATCCTTTACTTTATTTTCTCTGTTTATTCATTTACTTATTTTGTATTATCCTTATCTTATTTA / CGGATATTTCTGATGAGTCGAAAAATTATCTTGATAAAGCAG [3' tail DNA (RJ-167-mer/RJ-PHIX-42-1)]", "values": [{"measurement": "binding result", "setting": "RAD51 WT (human); label: 5'-32P on RJ-167-mer", "result": "binds"}, {"measurement": "binding result", "setting": "RAD51 G151D (human); label: 5'-32P on RJ-167-mer", "result": "binds"}]}, {"sequence": "CTGCTTTATCAAGATAATTTTTCGACTCATCAGAAATATCCGTTTCCTATATTTATTCCTATTATGTTTTATTCATTTACTTATTCTTTATGTTCATTTTTTATATCCTTTACTTTATTTTCTCTGTTTATTCATTTACTTATTTTGTATTATCCTTATCTTATTTA [ssDNA RJ-167-mer]", "values": [{"measurement": "binding result", "setting": "RAD51 WT (human); [1]", "result": "binds"}, {"measurement": "binding result", "setting": "RAD51 G151D (human); [1]", "result": "binds"}]}, {"sequence": "TAATACAAAATAAGTAAATGAATAAACAGAGAAAATAAAG (double strand) [dsDNA RJ-Oligo1/RJ-Oligo2]", "values": [{"measurement": "binding result", "setting": "RAD51 WT (human); label: 5'-32P on RJ-Oligo1", "result": "binds"}, {"measurement": "binding result", "setting": "RAD51 G151D (human); label: 5'-32P on RJ-Oligo1", "result": "binds"}]}]}
